Experimental data as given in patent US10640545B2 (THE GOVERNORS OF THE UNIVERSITY OF ALBERTA, priority 2017, dated 2020).

What was measured:
[1] = general procedure: Fmoc solid-phase peptide synthesis; PyBOP/HOBt/DIPEA or HATU/HOAt/DIPEA; settings: whole synthesis, scale 0.05 mmol
peptide synthesis = settings: whole synthesis

Substance | isolated mass [1] [mg] | isolated yield [1] [%] | isolated yield (peptide synthesis) [%]
pGlu-Arg-Pro-αMeArg-Leu-Ser-His-Lys-Gly-Pro-Nle-Aib-paraBrPhe | 8.5 | 11 | –
Lys-Phe-Arg-Arg-Gln-Arg-Pro-αMeArg-Leu-Ser-His-Lys-Gly-Pro-Nle-Aib-paraBrPhe | – | – | 11
pGlu-Arg-Pro-Arg-NMeLeu-Ser-His-Lys-Gly-Pro-Nle-Aib-paraBrPhe | 6.0 | 7 | –
pGlu-Arg-Pro-Arg-D-Leu-Ser-His-Lys-Gly-Pro-Nle-Aib-paraBrPhe | 11.3 | 14 | –
Lys-Phe-Arg-Arg-Gln-Arg-Pro-Arg-D-Leu-Ser-His-Lys-Gly-Pro-Nle-Aib-paraBrPhe | – | – | 9.1
Lys-Phe-Arg-Arg-Gln-Arg-Pro-Arg-NMeLeu-Ser-His-Lys-Gly-Pro-Nle-Aib-paraBrPhe | – | – | 22
